# In all, about 580,000 compounds went through this assay and about 6,100 (1.1%) were called active. Inconclusive results, whose numbers are uncertain, are shown with a selection of clear calls. Calls follow the shape of the dose curve; as a rule, active = well fitted inhibition curve with a large enough effect; inconclusive = small, poorly fitted or top-dose-only effect, or another doubt; inactive = no such curve, though single readings can be large or run the other way. Potencies of inconclusive entries are doubtful fits and often do not repeat.
# The chains behind the UniProt entries cited, without tags or fusion partners.
# UniProt P18054, whole entry, looked up: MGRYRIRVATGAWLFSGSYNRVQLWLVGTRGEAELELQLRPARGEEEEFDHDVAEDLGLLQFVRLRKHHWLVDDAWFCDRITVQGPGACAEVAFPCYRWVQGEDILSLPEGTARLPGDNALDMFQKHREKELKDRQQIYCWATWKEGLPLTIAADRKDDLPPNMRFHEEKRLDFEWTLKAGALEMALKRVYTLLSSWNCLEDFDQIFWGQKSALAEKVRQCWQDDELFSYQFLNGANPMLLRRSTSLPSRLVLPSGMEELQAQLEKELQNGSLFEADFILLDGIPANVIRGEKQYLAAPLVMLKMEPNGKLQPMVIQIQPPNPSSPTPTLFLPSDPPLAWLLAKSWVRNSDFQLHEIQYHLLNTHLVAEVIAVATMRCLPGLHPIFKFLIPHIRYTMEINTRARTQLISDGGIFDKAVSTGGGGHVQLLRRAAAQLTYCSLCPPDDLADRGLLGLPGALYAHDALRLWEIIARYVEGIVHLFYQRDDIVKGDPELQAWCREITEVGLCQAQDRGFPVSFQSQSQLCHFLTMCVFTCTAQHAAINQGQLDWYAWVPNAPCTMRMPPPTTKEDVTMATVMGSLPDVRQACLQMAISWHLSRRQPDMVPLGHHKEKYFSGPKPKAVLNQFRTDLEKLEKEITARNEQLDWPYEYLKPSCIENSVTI
# Target: Polyunsaturated fatty acid lipoxygenase ALOX12 (Homo sapiens) (UniProt P18054)
# Assay: Primary qHTS assay for inhibitors of human arachidonate 12S-lipoxygenase (ALOX12): Round 2
# Details: purified 12hLO, xylenol orange hydroperoxide absorbance; activity change, negative = inhibition: at 108 µM (top of the series) unless noted
# In short: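 Hydroperoxide product was detected by ferrous iron/xylenol orange as the 573 to 405 nm absorbance ratio. Arachidonic acid at 40 uM (final) was turned over for 30 min at room temperature by 150 nM human 12hLO, pH 7.0 Hepes buffer, after 15 min compound preincubation.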
# % is scaled to controls: 0 for no effect and ±100 for the full control effect; potency is read from the fitted curve at half-maximal effect.
Structure (SMILES),Potency,"activity change, negative = inhibition"
O=C(CC1CC1)N1CC(=O)N2[C@H](CO)[C@@H](c3ccc(Br)cc3)[C@@H]2C1,"inconclusive: 89.1 µM [inhibitor, single point]",
COC(=O)c1ccc(C)c(NC(=O)Cc2cc(C)ccc2OC)c1,"inconclusive: 35.5 µM [inhibitor, partial curve, poor fit]",
CCN(CC)c1sc(S(=O)(=O)c2ccccc2)nc1S(=O)(=O)c1ccc(C)cc1,inactive,
COCCOCC(=O)N1CC[C@H]2C(=O)NCCCCCCN(Cc3ccncc3)[C@@H]2C1,inactive,
CCOc1ccc(CCNC(=O)/C=C/c2ccco2)cc1OCC,"inconclusive: 39.8 µM [inhibitor, partial curve, poor fit]",
CC1=C(C(=O)Nc2ccc(C)cc2Cl)C2(CCCCCC2)OC1=O,,inconclusive: -34.7% [inhibitor]
N#Cc1sc2nc3c(cc2c1N)CCCC3,"inconclusive: 79.4 µM [inhibitor, partial curve, poor fit]",
O=C(NCCN1CCOCC1)c1cc(-c2ccc(F)cc2)nc2ccccc12,inactive,
CN1C(=O)/C(=C/C=C2/CCCN2C)N(C)C1=S,"inconclusive: 44.7 µM [inhibitor, partial curve, poor fit]",
CCC(C)NC(=O)Cc1ccc2c(c1)CCCC2 (stereo not given),"inconclusive: 100 µM [inhibitor, single point]",
N#Cc1c(-c2ccccc2)cc(-c2cccs2)nc1S(=O)Cc1ccccc1 (stereo not given),"inconclusive: 126 µM [inhibitor, partial curve, poor fit]",
O=S1(=O)NC2c3ccccc3CC2O1 (stereo not given),inactive,
CCN(c1ccccc1)S(=O)(=O)c1cccc(C(=O)Nc2cccc(C)n2)c1,"inconclusive: 89.1 µM [inhibitor, single point]",
O=C(/C=C/c1cccc(O)c1)c1ccc(F)c(Cl)c1,,inconclusive: -58.8% [inhibitor]
Oc1ccc(N=Nc2ccc3ccccc3c2)cc1,"inconclusive: 44.7 µM [inhibitor, partial curve, poor fit]",
Cc1ccccc1CN1CC[C@@H]2OCC(=O)N(Cc3cccc(C(N)=O)c3)[C@H]2CC1,inactive,
Cn1c(=O)c2c(nc(CN3CCc4ccccc4C3)n2Cc2ccccc2)n(C)c1=O,"inconclusive: 112 µM [inhibitor, single point]",
CCN(CC)CCCNc1oc(-c2ccc([N+](=O)[O-])cc2)nc1C#N,"inconclusive: 44.7 µM [inhibitor, single point]",
O=C1C(=O)N(c2ccccn2)C(c2ccc(Br)cc2)/C1=C(/O)c1ccc(Br)cc1 (stereo not given),"inconclusive: 3.55 µM [inhibitor, full curve, poor fit]",
CC(C)Cn1ccc2c(NC(=O)CC[C@H]3NC(=O)c4ccccc4NC3=O)cccc21,"inconclusive: 17.8 µM [inhibitor, full curve, poor fit]",
Cn1c(CN(O)S(=O)(=O)c2ccc(Cl)cc2)nnc1C(F)(F)F,"inconclusive: 2 µM [inhibitor, partial curve, poor fit]",
N#Cc1c(N2C(=O)CC(c3ccc4c(c3)OCO4)C3=C2CCCC3=O)sc2c1CCCCC2 (stereo not given),"inconclusive: 0.0355 µM [inhibitor, full curve, poor fit]",

# Laid out differently: entries from further up.
Structure (SMILES)	Potency	activity change, negative = inhibition
CCN(c1ccccc1)S(=O)(=O)c1cccc(C(=O)Nc2cccc(C)n2)c1	inconclusive: 89.1 µM [inhibitor, single point]	
O=C(/C=C/c1cccc(O)c1)c1ccc(F)c(Cl)c1		inconclusive: -58.8% [inhibitor]
Oc1ccc(N=Nc2ccc3ccccc3c2)cc1	inconclusive: 44.7 µM [inhibitor, partial curve, poor fit]	
Cc1ccccc1CN1CC[C@@H]2OCC(=O)N(Cc3cccc(C(N)=O)c3)[C@H]2CC1	inactive	
Cn1c(=O)c2c(nc(CN3CCc4ccccc4C3)n2Cc2ccccc2)n(C)c1=O	inconclusive: 112 µM [inhibitor, single point]	

# Further structures follow:

Structure (SMILES),Potency,"activity change, negative = inhibition"
Cc1nc2cnc(N3CCOCC3)nc2n(C2CC2)c1=O,"inconclusive: 50.1 µM [inhibitor, single point]",
O=C(Nc1cccc(Br)c1)N1CCC(CN2CCCCCC2)CC1,"inconclusive: 50.1 µM [inhibitor, partial curve, poor fit]",
Cc1ccc(S(=O)(=O)CCC(=O)N(Cc2nnc(-c3ccc(Cl)cc3)o2)C2CC2)cc1,"inconclusive: 0.794 µM [inhibitor, full curve, poor fit]",
OC(CNC1CCCC1)COc1c(F)cc(Br)cc1F (stereo not given),"inconclusive: 70.8 µM [inhibitor, partial curve, poor fit]",
CCOC(=O)C1CCN(Cc2ccccc2C(F)(F)F)CC1,"inconclusive: 5.01 µM [inhibitor, full curve, poor fit]",
N#C/C(=C\C=C\c1ccccc1)C(=O)NCc1cccnc1,inactive,
N#C/C(=C/c1ccccc1OC(F)(F)F)c1ccccn1,"inconclusive: 89.1 µM [inhibitor, single point]",
CC(C)N1C(=O)c2ccccc2N(Cc2ccccc2)S1(=O)=O,"inconclusive: 112 µM [inhibitor, single point]",
O=C1NC2c3c(I)sc(I)c3C(=O)C2O1 (stereo not given),"inconclusive: 89.1 µM [inhibitor, partial curve, poor fit]",
Cc1ccc(OCCOc2cccc3ccc(C)nc23)c([N+](=O)[O-])c1,"inconclusive: 0.631 µM [inhibitor, full curve, poor fit]",
CN=C(Nc1ccccc1OC)SC1CC(=O)N(c2ccc(C(=O)OC)cc2)C1=O (stereo not given),"inconclusive: 112 µM [inhibitor, single point]",
N#C/C(=C\c1ccc(-c2cccc(Cl)c2Cl)o1)c1ccccc1,inactive,
CC(=O)c1cc(CN2CCC(N3CCC(C(=O)N4CCCC4)CC3)CC2)cs1,inactive,
Cc1cc(N2CCN(C(C(=O)O)c3c[nH]c4ccc(Br)cc34)CC2)nc2ccccc12 (stereo not given),"inconclusive: 50.1 µM [inhibitor, partial curve, poor fit]",
C[C@H](c1ccccc1)N1C[C@H](COCc2ccccc2)Oc2cc(N3CC[C@H](N(C)C)C3)ccc2S1(=O)=O,"inconclusive: 31.6 µM [inhibitor, partial curve, poor fit]",
O=C(NCc1ccncc1)C1CCc2nc(N3CCN(C(=O)C4CCC4)CC3)sc2C1 (stereo not given),"inconclusive: 15.8 µM [inhibitor, full curve, poor fit]",
O=C(CSc1nc(=O)n2cc(Cl)ccc2n1)Nc1ccc2c(c1)OCO2,"inconclusive: 100 µM [inhibitor, partial curve, poor fit]",
O=C(c1cccc(Cl)c1)N1CCN(Cc2nnnn2C2CC2)CC1,"inconclusive: 25.1 µM [inhibitor, partial curve]",
COc1cccc(-c2ncc3ccccc3c2COC(=O)N2CCCCC2)c1,inactive,
O=C(C1=C(O)C(=O)N(c2ncccn2)C1c1ccc(Cl)cc1)c1ccco1 (stereo not given),"inconclusive: 0.794 µM [inhibitor, full curve, poor fit]",
O=C(Nc1cccnc1)c1cc(-c2cccc(Cl)c2)on1,inactive,
O=C(/C=C/c1ccco1)N/C(=C\c1ccccc1)C(=O)NCCc1nc2ccccc2[nH]1,,inconclusive: -31% [inhibitor]

Structure (SMILES),Potency,"activity change, negative = inhibition"
COc1ccc(N/C(C)=C2/C(=O)C(=O)N(CCO)C2c2ccc([N+](=O)[O-])cc2)cc1 (stereo not given),"inconclusive: 35.5 µM [inhibitor, partial curve, poor fit]",
CN1CCCN(C(=O)c2ccsc2)c2ccccc21,inactive,
Cc1cc(C)c(-n2c(SCc3nc4ccccc4s3)n[nH]c2=O)c(C)c1,inactive,
Cc1oc(-c2ccccc2)nc1C(=O)Nc1nc(C2CC2)cs1,"inconclusive: 39.8 µM [inhibitor, single point]",
O=S(=O)(c1ccc(F)cc1)N1CCN(c2nc3ccccc3o2)CC1,inactive,
Cc1ccc(NC(=S)NC(=O)c2ccc(F)cc2)cc1S(=O)(=O)Nc1ccccc1Cl,active: 5.01 µM,
OCCN1CCN(C2CCC(c3ccc(F)cc3)c3ccc(F)cc32)CC1 (stereo not given),"inconclusive: 100 µM [inhibitor, partial curve, poor fit]",
COc1ccc(OC)c(NS(=O)(=O)c2cccc3cccnc23)c1,"inconclusive: 0.1 µM [inhibitor, full curve, poor fit]",
Cc1ccc(C[n+]2ccccc2)cc1,"inconclusive: 28.2 µM [inhibitor, partial curve]",
Clc1ss/c(=N\c2ccccn2)c1Cl,inactive,
CCc1cc(CC)n(-c2nc3c(c(=O)n(CC)c(=O)n3C)n2CC)n1,"inconclusive: 35.5 µM [inhibitor, single point]",
Cc1c(N2C(=O)CSC2c2ccc(F)cc2)c(=O)n(-c2ccccc2)n1C (stereo not given),inactive,
NC(CSC(c1ccccc1)(c1ccccc1)c1ccc(-c2ccccc2)cc1)C(=O)O (stereo not given),"inconclusive: 44.7 µM [inhibitor, partial curve, poor fit]",
OC[C@H]1O[C@@H](c2nc(-c3nc(-c4ccc(F)cc4)no3)cs2)[C@H](O)[C@@H](O)[C@H]1O,"inconclusive: 100 µM [inhibitor, single point]",
CC1=C(C(N)=O)C(c2cccs2)NC(=S)N1 (stereo not given),"inconclusive: 25.1 µM [inhibitor, partial curve, poor fit]",
COc1ccc(CCN(C)C2CCCN(C(=O)CCC(F)(F)F)C2)cc1OC (stereo not given),"inconclusive: 44.7 µM [inhibitor, single point]",
CCCCCCCCCCOC(=O)C[N+](C)(C)Cc1ccccc1,active: 44.7 µM,
O=[N+]([O-])c1cccc(-c2ccc(SCc3cccnc3)nn2)c1,"inconclusive: 100 µM [inhibitor, single point]",
Cc1cccc(C)c1N1CCN(CCn2c(=S)[nH]c3ccccc3c2=O)CC1,inactive,
C=C1[C@H]2O[C@H]2[C@@H](OC(C)=O)[C@@]2(C)[C@@H](OC(C)=O)C[C@@H](OC(C)=O)[C@@](C)(O)[C@@H]2[C@@H](OC(C)=O)[C@@]2(O)[C@@H](C)C(=O)O[C@H]2[C@H]1Cl,"inconclusive: 112 µM [inhibitor, single point]",

# Reference: PubChem BioAssay AID1671190 (National Center for Advancing Translational Sciences (NCATS), 2021)
